PubChem BioAssay AID445 (National Center for Advancing Translational Sciences (NCATS), 2006)
This is one part of the list. The main result of the screen is listed elsewhere. These columns were measured beside it and carry no call. Compounds called inactive in the main read-out are mostly missing here. Words in brackets tell the shape of the fitted curve; partial curves, single points and poor fits give uncertain potencies.

Assay: IkB Signaling
Settings: ABC-DLBCL IkBa-CBG/CBR dual luciferase ratio (green luciferase fused to IkBa over red control in OCI-Ly3 lymphoma cells), 4 h; measured here: control luc red channel unless noted
Outline: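 Curves were fitted separately to fusion (green), unfused (red) and ratio luminescence, then classed by r2, magnitude and activity. Cells: OCI-Ly3, 4 h compound plus doxycycline at 37C; 10 uM MG-132 defined full response.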
For `O=C(CN1CCN(Cc2ccccc2Cl)C1=O)NCCc1ccc(Cl)cc1`, the AC50 was 5.01 µM [falling, partial curve, poor fit].
With `Cc1ccc(-c2csc3ncnc(Nc4ccc(C(=O)O)cc4)c23)cc1` the AC50 was 5.01 µM [falling, partial curve].
In the case of `COc1cc(NS(=O)(=O)c2ccc(-c3cc(C)no3)cc2)cc(OC)c1`, the AC50 is reported as 5.01 µM [falling, full curve].
In the case of `COc1ccccc1-c1nc2cc(NC(=O)c3ccccc3Cl)ccc2o1`, the AC50 is reported as 12.6 µM [falling, partial curve].
In the case of `COc1cc(Br)cc(-c2nc3c(c(=O)[nH]c(=O)n3Cc3ccccc3)n2C)c1O`, the AC50 is reported as 31.6 µM [falling, partial curve].
With `COc1ccc(CCNc2ncnc3onc(C)c23)c(OC)c1` the AC50 was 2 µM [falling, partial curve].
With `O=C(CSc1nnc(-c2cccnc2)n1Cc1ccco1)N1c2ccccc2Sc2ccccc21` the AC50 was 39.8 µM [rising, single point] [measured here: IkB-luc green channel].
With `CCc1ccccc1NC(=O)c1ccc(F)c(S(=O)(=O)N2CCN(c3cccc(Cl)c3)CC2)c1` the AC50 was 39.8 µM [falling, single point].
With `Cc1ccc(O)c(-c2n[nH]c3c2C(c2ccc(F)cc2)N(Cc2ccco2)C3=O)c1` (configuration not stated) the AC50 was 31.6 µM [falling, single point].
In the case of `Cc1c(O)cccc1C(=O)N[C@@H](CSc1ccccc1)[C@H](O)CN1C[C@H]2CCCC[C@H]2C[C@H]1C(=O)NC(C)(C)C`, the AC50 is reported as 15.8 µM [falling, partial curve].
In the case of `CCOC(=O)c1cnc2ccc(OCC)cc2c1Nc1ccc(OCc2ccccc2Cl)cc1`, the AC50 is reported as 6.31 µM [falling, partial curve].
With `Cc1cccc(CNC(=O)CN2C(=O)CSc3c2c(C)nn3-c2ccccc2)c1` the AC50 was 20 µM [falling, partial curve].
With `CC(=O)c1cc(-c2ccc(F)cc2)n(CCC(=O)Nc2nc3ccc(C)cc3s2)c1C` the AC50 was 0.794 µM [rising, full curve].
With `Cc1cccc(-c2nc(CN3CCCC(C(=O)NC4CCCCC4)C3)c(C)o2)c1` (configuration not stated) the AC50 was 31.6 µM [falling, partial curve].
In the case of `Cc1ccc(C(=O)N2CCC(C)CC2)cc1NC(=O)c1nsc2ccccc12`, the AC50 is reported as 25.1 µM [falling, partial curve].
In the case of `COc1ccc(NC(=O)N(CCN2CCCC2)Cc2cc3cc(OC)c(OC)cc3[nH]c2=O)cc1`, the AC50 is reported as 2.51 µM [rising, partial curve] [measured here: IkB-luc green channel].
With `CSc1nn(Cc2ccc(F)cc2)c(N)c1S(=O)(=O)c1ccc(Cl)cc1` the AC50 was 31.6 µM [falling, single point].
With `COc1cccc(CSc2nc(-c3ccccc3OC)nc3c2Cc2c(CO)cnc(C)c2O3)c1` the AC50 was 12.6 µM [falling, partial curve].
In the case of `Cc1ccc(C(=O)CC2(O)C(=O)N(Cc3ccccc3)c3ccc(Br)cc32)cc1` (configuration not stated), the AC50 is reported as 20 µM [falling, partial curve].
In the case of `CCCCOC(=O)c1ccc(NC(=O)/C(C#N)=C/c2ccc(C)o2)cc1`, the AC50 is reported as 0.158 µM [falling, full curve].
With `CCc1cc2c(NCC3CCCO3)ncnc2s1` (configuration not stated) the AC50 was 31.6 µM [falling, single point].
In the case of `CCCCC(c1nnnn1CCOC)N1CCN(c2cccc(OC)c2)CC1` (configuration not stated), the AC50 is reported as 25.1 µM [falling, partial curve].
In the case of `CCC(C)n1cnc2c(c1=O)c1nc3ccccc3nc1n2Cc1ccc2c(c1)OCO2` (configuration not stated), the AC50 is reported as 7.94 µM [falling, single point].
With `COC(=O)c1ccc(NC(=O)CN(c2cccc(C(F)(F)F)c2)S(C)(=O)=O)cc1` the AC50 was 25.1 µM [falling, partial curve, poor fit].
In the case of `Cc1cccc(-n2c(SCC(=O)Nc3ccccc3C)nc3c(oc4ccccc43)c2=O)c1`, the AC50 is reported as 6.31 µM [falling, partial curve].
With `COc1ccccc1NC(=O)Nc1ccc2c(c1)OCCO2` the AC50 was 7.94 µM [falling, partial curve].
With `CCn1cc2nc(SCc3cccc(F)c3)n(CCc3ccccc3)c(=O)c2n1` the AC50 was 31.6 µM [falling, single point].
In the case of `O=C(O)CCn1ccc2cc(S(=O)(=O)N3CCCCC3)ccc21`, the AC50 is reported as 0.01 µM [falling, full curve].
For `COc1ccc(Cl)cc1NC(=O)CCCS(=O)(=O)c1nc(-c2ccc(OC)c(OC)c2)cc(C(F)(F)F)n1`, the AC50 was 6.31 µM [falling, full curve].
With `Cc1cc(C)n2c(Nc3cccc(C(F)(F)F)c3)c(-c3ccsc3)nc2n1` the AC50 was 25.1 µM [falling, partial curve].
For `Cc1ccc2oc(=O)c3cc(C(=O)Nc4cccc(C#N)c4)sc3c2c1`, the AC50 was 6.31 µM [rising, partial curve, poor fit].
With `O=C(CN1CCN(c2ccc(Cl)cc2)CC1)Nc1ccc(F)c(F)c1` the AC50 was 2 µM [falling, full curve].
In the case of `Cc1cc(C)cc(-n2ccnc2SCC(=O)Nc2ccc(C)c(Cl)c2)c1`, the AC50 is reported as 7.94 µM [falling, partial curve].
For `COc1ccc(NC(=O)c2[nH]nc3c2CSc2ccccc2-3)c(OC)c1`, the AC50 was 10 µM [falling, partial curve].
For `Cc1ccc(-c2n[nH]c3c2C(c2cccs2)N(c2ccc(Cl)cc2)C3=O)cc1` (configuration not stated), the AC50 was 10 µM [falling, partial curve].
For `Cc1ccc(C)c(C(=O)CSc2nc3cc(C(=O)NC4CCCC4)ccc3c(=O)n2CC2CCCO2)c1` (configuration not stated), the AC50 was 3.16 µM [falling, full curve, poor fit].
For `Cc1cc(C)nc(N2CCC(C(=O)N3CCN(c4cc(Cl)ccc4C)CC3)CC2)n1`, the AC50 was 15.8 µM [falling, partial curve].
With `Cc1ccc(-c2nc3cc(NC(=O)c4cc(Br)ccc4Cl)ccc3o2)cc1` the AC50 was 10 µM [falling, partial curve].
With `CC(C)CCNC(=O)c1ccc2c(c1)N(C)C(=O)c1ccccc1S2` the AC50 was 3.98 µM [rising, partial curve].
With `CC1CCN(S(=O)(=O)c2cn(CC(=O)Nc3ccc(F)cc3)c(=O)c3ccccc23)CC1` the AC50 was 12.6 µM [falling, partial curve].
In the case of `COc1ccc(N2CCN(Cc3nc(-c4ccc(C)cc4)no3)CC2)cc1`, the AC50 is reported as 20 µM [falling, partial curve].
With `CCOc1cc2[nH]c(=O)n(CCCCCC(=O)NC(C)CC)c(=O)c2cc1OCC` (configuration not stated) the AC50 was 0.2 µM [falling, full curve, poor fit].
For `COc1ccc(C2c3c(-c4ccc(F)cc4)n[nH]c3C(=O)N2c2ccccc2)cc1OC` (configuration not stated), the AC50 was 20 µM [falling, partial curve].
For `CCOc1ccc(CCNC(=O)c2cc3c(-c4ccccc4F)nn(C)c3s2)cc1OCC`, the AC50 was 10 µM [falling, partial curve].
With `Cc1ccccc1CNC(=O)CCSCc1cnn(-c2ccccc2)c1-n1cccc1` the AC50 was 3.16 µM [falling, single point].
In the case of `Oc1c(Cl)cc(Cl)cc1Sc1cc(Cl)cc(Cl)c1O`, the AC50 is reported as 0.631 µM [falling, full curve].
In the case of `O=C(COc1ccccc1)Nc1ccc2nc(SCC(=O)N3CCCC3)sc2c1`, the AC50 is reported as 39.8 µM [falling, single point].
In the case of `Cn1c(CCN2CCCCCC2)nc2cc(NC(=O)Nc3ccccc3)ccc21`, the AC50 is reported as 12.6 µM [falling, partial curve].
In the case of `Fc1ccc(N2CCN(c3ncnc4c3nc3n4CCCC3)CC2)cc1`, the AC50 is reported as 39.8 µM [falling, single point].
For `CCOC(=O)N1CCN(S(=O)(=O)c2ccc(F)c(C(=O)Nc3cc(C)cc(C)c3)c2)CC1`, the AC50 was 7.94 µM [falling, partial curve].
For `Cn1cc(S(=O)(=O)N2CCCCC2)cc1C(=O)NCc1ccc(Cl)cc1`, the AC50 was 12.6 µM [falling, partial curve].
In the case of `CCCCSc1nnc2c(n1)OC(c1ccc(C)s1)Nc1ccccc1-2` (configuration not stated), the AC50 is reported as 25.1 µM [falling, single point].
In the case of `CCCN(C(=O)c1cn(CC(C)C)c(=O)c2cc(OC)c(OC)cc12)c1cccc(C)c1`, the AC50 is reported as 2.51 µM [falling, partial curve].
For `Cc1cc(S(=O)(=O)Nc2ccc3[nH]c(=O)sc3c2)ccc1F`, the AC50 was 10 µM [falling, partial curve].
With `Cc1ccc(S(=O)(=O)N(CC(=O)Nc2c(C)cccc2C)c2cccc(Cl)c2)cc1` the AC50 was 20 µM [falling, single point].
With `COc1ccc2[nH]cc(CCNc3ncncc3-c3ccc4c(c3)OCO4)c2c1` the AC50 was 3.16 µM [falling, single point].
With `COC(=O)c1cc(C)nc2c1c(=O)nc(SCc1c(C)cc(C)cc1C)n2C1CC1` the AC50 was 31.6 µM [falling, partial curve].
With `CCc1ccc(NC(=O)CSc2nc3ccccc3c(=O)n2CCC(=O)NC2CCCCC2)cc1` the AC50 was 7.94 µM [rising, full curve, poor fit].
For `CCc1ccc(-c2nc(CN3CCC(C(=O)N4CCN(c5ccccc5)CC4)CC3)c(C)o2)cc1`, the AC50 was 15.8 µM [falling, partial curve].
With `CCC(=O)N1c2ccc(S(=O)(=O)N3CCCCCC3)cc2CC1C` (configuration not stated) the AC50 was 12.6 µM [rising, partial curve].
For `Cc1ccc(NC(=O)COc2ccc(-c3nn(C)c(=O)c4ccccc34)cc2)c(C)c1`, the AC50 was 25.1 µM [falling, single point].
For `CCOc1ccc(CCNC(=O)C2CCN(Cc3nc(-c4ccccc4C)oc3C)CC2)cc1OCC`, the AC50 was 12.6 µM [falling, single point].
